Measurements reported in paper PMC8576004.

What was measured:
[1] = biological target: T1, FRET-based intramolecular interaction probe of USP8 (FRIP8) (human) (UniProt P40818); assay: co-IP; as a6, but the lysate was incubated with 100 μM R18 peptide at 4 °C for 30 min before immunoprecipitation
T1 sequence: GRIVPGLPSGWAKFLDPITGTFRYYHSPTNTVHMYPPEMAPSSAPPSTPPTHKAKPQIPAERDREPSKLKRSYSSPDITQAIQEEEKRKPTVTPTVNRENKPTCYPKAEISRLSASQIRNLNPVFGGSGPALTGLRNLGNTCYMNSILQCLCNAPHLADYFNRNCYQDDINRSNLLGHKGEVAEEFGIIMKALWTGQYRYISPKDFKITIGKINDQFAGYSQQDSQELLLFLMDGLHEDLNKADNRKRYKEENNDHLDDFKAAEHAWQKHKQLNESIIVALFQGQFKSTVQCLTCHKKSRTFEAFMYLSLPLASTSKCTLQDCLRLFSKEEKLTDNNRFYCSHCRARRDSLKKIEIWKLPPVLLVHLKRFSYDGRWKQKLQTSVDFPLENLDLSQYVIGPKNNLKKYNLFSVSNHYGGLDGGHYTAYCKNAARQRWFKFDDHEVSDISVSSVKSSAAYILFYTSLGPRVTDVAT

[2] = biological target: T1, FRET-based intramolecular interaction probe of USP8 (FRIP8) (human); assay: co-IP; HEK293 lysates; anti-FLAG beads (FLAG-USP8) or anti-GFP antibody (FRIP8); washed five times with lysis buffer; immunoblotting for 14-3-3
[3] = biological target: GST-tagged 14-3-3; assay: pull-down; total cell lysates adsorbed with GST-tagged 14-3-3; phosphorylation of the 14-3-3-binding motif of USP8 measured in the adsorbed fraction (Supplementary Fig. 5a)

14-3-3ε (expressed with FRIP8) (human)
binding [1]: no binding (only with 100 μM R18) | binding [2]: binds

B1: cellular USP8 (phosphorylated in the 14-3-3-binding motif) (enzyme, UniProt P40818 1-1118)
chain: MPAVASVPKELYLSSSLKDLNKKTEVKPEKISTKSYVHSALKIFKTAEECRLDRDEERAYVLYMKYVTVYNLIKKRPDFKQQQDYFHSILGPGNIKKAVEEAERLSESLKLRYEEAEVRKKLEEKDRQEEAQRLQQKRQETGREDGGTLAKGSLENVLDSKDKTQKSNGEKNEKCETKEKGAITAKELYTMMTDKNISLIIMDARRMQDYQDSCILHSLSVPEEAISPGVTASWIEAHLPDDSKDTWKKRGNVEYVVLLDWFSSAKDLQIGTTLRSLKDALFKWESKTVLRNEPLVLEGGYENWLLCYPQYTTNAKVTPPPRRQNEEVSISLDFTYPSLEESIPSKPAAQTPPASIEVDENIELISGQNERMGPLNISTPVEPVAASKSDVSPIIQPVPSIKNVPQIDRTKKPAVKLPEEHRIKSESTNHEQQSPQSGKVIPDRSTKPVVFSPTLMLTDEEKARIHAETALLMEKNKQEKELRERQQEEQKEKLRKEEQEQKAKKKQEAEENEITEKQQKAKEEMEKKESEQAKKEDKETSAKRGKEITGVKRQSKSEHETSDAKKSVEDRGKRCPTPEIQKKSTGDVPHTSVTGDSGSGKPFKIKGQPESGILRTGTFREDTDDTERNKAQREPLTRARSEEMGRIVPGLPSGWAKFLDPITGTFRYYHSPTNTVHMYPPEMAPSSAPPSTPPTHKAKPQIPAERDREPSKLKRSYSSPDITQAIQEEEKRKPTVTPTVNRENKPTCYPKAEISRLSASQIRNLNPVFGGSGPALTGLRNLGNTCYMNSILQCLCNAPHLADYFNRNCYQDDINRSNLLGHKGEVAEEFGIIMKALWTGQYRYISPKDFKITIGKINDQFAGYSQQDSQELLLFLMDGLHEDLNKADNRKRYKEENNDHLDDFKAAEHAWQKHKQLNESIIVALFQGQFKSTVQCLTCHKKSRTFEAFMYLSLPLASTSKCTLQDCLRLFSKEEKLTDNNRFYCSHCRARRDSLKKIEIWKLPPVLLVHLKRFSYDGRWKQKLQTSVDFPLENLDLSQYVIGPKNNLKKYNLFSVSNHYGGLDGGHYTAYCKNAARQRWFKFDDHEVSDISVSSVKSSAAYILFYTSLGPRVTDVAT
modifications: phosphorylated in the 14-3-3-binding motif
binding [3]: binds

Results are given in words; binding and its absence hold for the method and conditions named. In cells and extracts the contact can be indirect. For part of these data: Binding calls can cover weak binding; strength is not graded here.
